{"source": "PubChem BioAssay AID192", "about": "(DTP/NCI, 2004)", "tested_on": "BDF1 mice, B16 melanoma ip, median survival T/C", "experiment": "NCI In Vivo Anticancer Drug Screen. Data for tumor model B16 Melanoma (intraperitoneal) in B6D2F1 (BDF1) mice", "conditions": "T/C endpoint: median survival time, higher T/C = longer survival", "summary_of_the_method": "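Transplantable tumor model; survival or tumor size measured; reported as T/C, treated over vehicle control.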", "note": "The list shows only some results of the screen, not a fair sample: it is rich in T/C values a quarter to a half above the control, in often repeated tests (any T/C) and in doses without a T/C. Further doses and runs are listed elsewhere. T/C: endpoint of the treated group in % of that of the vehicle group. Some entries give survivors of the animals treated and no T/C: the source holds a T/C of zero for them, seemingly a mark for toxic or unscored doses. Some doses without a T/C left all or most animals alive at the check, yet need not have been tolerated: survival well below the control is almost never listed, so the zero probably covers shortened survival too. Survivors were counted at the toxicity check, usually on the fifth day, unless a day is given; later deaths do not show. Schedule codes are those of the source, taken here to give the interval after Q, in days (D) or hours (H), and the number of doses after X. Some doses were run more than once; the values are given in rising order. For survival time, this PubChem deposit counts one and a half times the control or more as active, and values a quarter to a half above the control carry no call in these data; other NCI protocols may use other cut-offs.", "data": [{"molecule": "CO[C@H]1/C=C/O[C@@]2(C)Oc3c(C)c(O)c4c(O)c(c(/C=N/N5C(C)CN(Cc6ccccc6)CC5C)c(O)c4c3C2=O)NC(=O)/C(C)=C\\C=C\\[C@H](C)[C@H](O)[C@@H](C)[C@@H](O)[C@@H](C)[C@H](OC(C)=O)[C@@H]1C", "note": "(stereo partly drawn)", "values": [{"measurement": "survivor count", "setting": "dose: 4.0 mg/kg/injection, schedule: Q03HX024 (ip), vehicle: clinical formulation", "value": "9 of 10"}, {"measurement": "survivor count", "setting": "dose: 4.0 mg/kg/injection, schedule: Q03HX040 (ip), vehicle: clinical formulation", "value": "9 of 10"}, {"measurement": "survivor count", "setting": "dose: 4.0 mg/kg/injection, schedule: Q03HX088 (ip), vehicle: Klucel (hydroxypropylcellulose) (HPC)", "value": "10 of 10"}, {"measurement": "survivor count", "setting": "dose: 4.0 mg/kg/injection, schedule: Q03HX088 (ip), vehicle: other", "value": "9 of 10"}, {"measurement": "survivor count", "setting": "dose: 8.0 mg/kg/injection, schedule: Q01DX020 (ip), vehicle: clinical formulation", "value": "8 of 10"}, {"measurement": "survivor count", "setting": "dose: 8.0 mg/kg/injection, schedule: Q03HX040 (ip), vehicle: clinical formulation", "value": "9 of 10"}, {"measurement": "survivor count", "setting": "dose: 8.0 mg/kg/injection, schedule: Q03HX088 (ip), vehicle: Klucel (hydroxypropylcellulose) (HPC)", "value": "10 of 10"}, {"measurement": "survivor count", "setting": "dose: 8.0 mg/kg/injection, schedule: Q03HX088 (ip), vehicle: other", "value": "9 of 10"}, {"measurement": "survivor count", "setting": "dose: 16.0 mg/kg/injection, schedule: Q01DX020 (ip), vehicle: clinical formulation", "value": "9 of 10"}, {"measurement": "survivor count", "setting": "dose: 16.0 mg/kg/injection, schedule: Q02DX010 (ip), vehicle: clinical formulation", "value": "8 of 10"}, {"measurement": "survivor count", "setting": "dose: 16.0 mg/kg/injection, schedule: Q03HX024 (ip), vehicle: clinical formulation", "value": "9 of 10"}, {"measurement": "survivor count", "setting": "dose: 16.0 mg/kg/injection, schedule: Q03HX040 (ip), vehicle: clinical formulation", "value": "10 of 10"}, {"measurement": "survivor count", "setting": "dose: 16.0 mg/kg/injection, schedule: Q03HX088 (ip), vehicle: Klucel (hydroxypropylcellulose) (HPC)", "value": "10 of 10"}, {"measurement": "survivor count", "setting": "dose: 16.0 mg/kg/injection, schedule: Q03HX088 (ip), vehicle: other", "value": "10 of 10"}, {"measurement": "survivor count", "setting": "dose: 32.0 mg/kg/injection, schedule: Q01DX020 (ip), vehicle: clinical formulation", "value": "10 of 10"}, {"measurement": "survivor count", "setting": "dose: 32.0 mg/kg/injection, schedule: Q02DX010 (ip), vehicle: clinical formulation", "value": "10 of 10"}, {"measurement": "survivor count", "setting": "dose: 32.0 mg/kg/injection, schedule: Q03HX008 (ip), vehicle: clinical formulation", "value": "7 of 10"}, {"measurement": "survivor count", "setting": "dose: 32.0 mg/kg/injection, schedule: Q03HX040 (ip), vehicle: clinical formulation", "value": "7 of 10"}, {"measurement": "survivor count", "setting": "dose: 32.0 mg/kg/injection, schedule: Q03HX088 (ip), vehicle: Klucel (hydroxypropylcellulose) (HPC)", "value": "8 of 10"}, {"measurement": "survivor count", "setting": "dose: 32.0 mg/kg/injection, schedule: Q03HX088 (ip), vehicle: other", "value": "10 of 10"}, {"measurement": "survivor count", "setting": "dose: 32.0 mg/kg/injection, schedule: Q04DX005 (ip), vehicle: clinical formulation", "value": "7 of 10"}, {"measurement": "survivor count", "setting": "dose: 32.0 mg/kg/injection, schedule: Q08DX003 (ip), vehicle: clinical formulation", "value": "5 of 10"}, {"measurement": "survivor count", "setting": "dose: 64.0 mg/kg/injection, schedule: Q01DX001 (ip), vehicle: clinical formulation", "value": "9 of 10"}, {"measurement": "survivor count", "setting": "dose: 64.0 mg/kg/injection, schedule: Q01DX020 (ip), vehicle: clinical formulation", "value": "10 of 10"}, {"measurement": "survivor count", "setting": "dose: 64.0 mg/kg/injection, schedule: Q02DX010 (ip), vehicle: clinical formulation", "value": "10 of 10"}, {"measurement": "survivor count", "setting": "dose: 64.0 mg/kg/injection, schedule: Q03HX008 (ip), vehicle: clinical formulation", "value": "6 of 10"}, {"measurement": "survivor count", "setting": "dose: 64.0 mg/kg/injection, schedule: Q03HX024 (ip), vehicle: clinical formulation", "value": "7 of 10"}, {"measurement": "survivor count", "setting": "dose: 64.0 mg/kg/injection, schedule: Q03HX040 (ip), vehicle: clinical formulation", "value": "5 of 10"}, {"measurement": "survivor count", "setting": "dose: 64.0 mg/kg/injection, schedule: Q03HX088 (ip), vehicle: Klucel (hydroxypropylcellulose) (HPC)", "value": "9 of 10"}, {"measurement": "survivor count", "setting": "dose: 64.0 mg/kg/injection, schedule: Q03HX088 (ip), vehicle: other", "value": "7 of 10"}, {"measurement": "T/C", "setting": "dose: 100.0 mg/kg/injection, schedule: Q01DX009 (ip), vehicle: saline", "value": "130 % of control"}, {"measurement": "survivor count", "setting": "dose: 128.0 mg/kg/injection, schedule: Q01DX001 (ip), vehicle: clinical formulation", "value": "9 of 10"}, {"measurement": "survivor count", "setting": "dose: 128.0 mg/kg/injection, schedule: Q01DX020 (ip), vehicle: clinical formulation", "value": "7 of 10"}, {"measurement": "survivor count", "setting": "dose: 128.0 mg/kg/injection, schedule: Q02DX010 (ip), vehicle: clinical formulation", "value": "9 of 10"}, {"measurement": "survivor count", "setting": "dose: 128.0 mg/kg/injection, schedule: Q03HX008 (ip), vehicle: clinical formulation", "value": "0 of 10"}, {"measurement": "survivor count", "setting": "dose: 128.0 mg/kg/injection, schedule: Q03HX024 (ip), vehicle: clinical formulation", "value": "0 of 10"}, {"measurement": "survivor count", "setting": "dose: 128.0 mg/kg/injection, schedule: Q04DX005 (ip), vehicle: clinical formulation", "value": "7 of 10"}, {"measurement": "survivor count", "setting": "dose: 128.0 mg/kg/injection, schedule: Q08DX003 (ip), vehicle: clinical formulation", "value": "8 of 10"}, {"measurement": "survivor count", "setting": "dose: 256.0 mg/kg/injection, schedule: Q01DX020 (ip), vehicle: clinical formulation", "value": "0 of 10"}, {"measurement": "survivor count", "setting": "dose: 256.0 mg/kg/injection, schedule: Q02DX010 (ip), vehicle: clinical formulation", "value": "5 of 10"}, {"measurement": "survivor count", "setting": "dose: 256.0 mg/kg/injection, schedule: Q04DX005 (ip), vehicle: clinical formulation", "value": "9 of 10"}, {"measurement": "survivor count", "setting": "dose: 256.0 mg/kg/injection, schedule: Q08DX003 (ip), vehicle: clinical formulation", "value": "7 of 10"}, {"measurement": "survivor count", "setting": "dose: 400.0 mg/kg/injection, schedule: Q01DX009 (ip), vehicle: saline", "value": "9 of 10"}, {"measurement": "survivor count", "setting": "dose: 512.0 mg/kg/injection, schedule: Q01DX001 (ip), vehicle: clinical formulation", "value": "2 of 10"}, {"measurement": "survivor count", "setting": "dose: 512.0 mg/kg/injection, schedule: Q02DX010 (ip), vehicle: clinical formulation", "value": "0 of 10"}, {"measurement": "survivor count", "setting": "dose: 512.0 mg/kg/injection, schedule: Q04DX005 (ip), vehicle: clinical formulation", "value": "0 of 10"}, {"measurement": "survivor count", "setting": "dose: 512.0 mg/kg/injection, schedule: Q08DX003 (ip), vehicle: clinical formulation", "value": "2 of 10"}, {"measurement": "survivor count", "setting": "dose: 1024.0 mg/kg/injection, schedule: Q01DX001 (ip), vehicle: clinical formulation", "value": "0 of 10"}, {"measurement": "survivor count", "setting": "dose: 1024.0 mg/kg/injection, schedule: Q08DX003 (ip), vehicle: clinical formulation", "value": "0 of 10"}]}, {"molecule": "OCCN1CCC2(CC1)SSC1(CCN(CCO)CC1)S2", "values": [{"measurement": "T/C", "setting": "dose: 50.0 mg/kg/injection, schedule: Q01DX009 (ip), vehicle: saline", "value": "129 % of control"}]}, {"molecule": "CCCCCCCCCCCCCCCCCCNC(=O)Nc1ccccc1[N+](=O)[O-]", "values": [{"measurement": "survivor count", "setting": "dose: 0.37 mg/kg/injection, schedule: Q01DX009 (ip), vehicle: DMSO", "value": "10 of 10"}, {"measurement": "survivor count", "setting": "dose: 0.75 mg/kg/injection, schedule: Q01DX009 (ip), vehicle: DMSO", "value": "9 of 9"}, {"measurement": "survivor count", "setting": "dose: 1.5 mg/kg/injection, schedule: Q01DX009 (ip), vehicle: DMSO", "value": "8 of 9 and 10 of 10"}, {"measurement": "survivor count", "setting": "dose: 3.0 mg/kg/injection, schedule: Q01DX009 (ip), vehicle: DMSO", "value": "10 of 10"}, {"measurement": "survivor count", "setting": "dose: 6.0 mg/kg/injection, schedule: Q01DX009 (ip), vehicle: DMSO", "value": "9 of 10"}, {"measurement": "survivor count", "setting": "dose: 12.0 mg/kg/injection, schedule: Q01DX009 (ip), vehicle: DMSO", "value": "10 of 10"}, {"measurement": "survivor count", "setting": "dose: 100.0 mg/kg/injection, schedule: Q04DX003 (ip), vehicle: DMSO", "value": "10 of 10"}, {"measurement": "survivor count", "setting": "dose: 200.0 mg/kg/injection, schedule: Q04DX003 (ip), vehicle: DMSO", "value": "10 of 10"}, {"measurement": "survivor count", "setting": "dose: 400.0 mg/kg/injection, schedule: Q04DX003 (ip), vehicle: DMSO", "value": "7 of 10"}]}, {"molecule": "CC12CC(C(=O)O)C3(O)CC(C)(C1)CC(C)(C2)C3", "note": "(stereo not drawn) (tested in a mixture with another compound)", "values": [{"measurement": "survivor count", "setting": "dose: 400.0 mg/kg/injection, schedule: Q01DX009 (ip), vehicle: Klucel (hydroxypropylcellulose) (HPC)", "value": "0 of 10 and 6 of 10"}]}, {"molecule": "CCCCOC(=O)/C=C(\\Br)C(=O)OCCCC", "values": [{"measurement": "survivor count", "setting": "dose: 50.0 mg/kg/injection, schedule: Q01DX009 (ip), vehicle: saline with Tween-80", "value": "10 of 10"}, {"measurement": "survivor count", "setting": "dose: 100.0 mg/kg/injection, schedule: Q01DX009 (ip), vehicle: saline with Tween-80", "value": "10 of 10"}, {"measurement": "survivor count", "setting": "dose: 200.0 mg/kg/injection, schedule: Q01DX009 (ip), vehicle: saline with Tween-80", "value": "9 of 10"}]}]}
